Measurements as given in US20200123239A1 (PROTHENA BIOSCIENCES, published 2020).
Positions count from the first letter of the chain named. No constants are given. Whether binding was seen depends on the method and setting. Some binding calls cover weakened binding; strength is not graded here. One block for each binder: values may come before it.

By UniProt entry, the sequences of proteins in these tests, tags left out. Where a name states a change or a piece, a line headed by the entry shows the natural chain unless it says otherwise. Chains listed by the source or under a name are the forms on record and can include a tag or linker.
UniProt P10636: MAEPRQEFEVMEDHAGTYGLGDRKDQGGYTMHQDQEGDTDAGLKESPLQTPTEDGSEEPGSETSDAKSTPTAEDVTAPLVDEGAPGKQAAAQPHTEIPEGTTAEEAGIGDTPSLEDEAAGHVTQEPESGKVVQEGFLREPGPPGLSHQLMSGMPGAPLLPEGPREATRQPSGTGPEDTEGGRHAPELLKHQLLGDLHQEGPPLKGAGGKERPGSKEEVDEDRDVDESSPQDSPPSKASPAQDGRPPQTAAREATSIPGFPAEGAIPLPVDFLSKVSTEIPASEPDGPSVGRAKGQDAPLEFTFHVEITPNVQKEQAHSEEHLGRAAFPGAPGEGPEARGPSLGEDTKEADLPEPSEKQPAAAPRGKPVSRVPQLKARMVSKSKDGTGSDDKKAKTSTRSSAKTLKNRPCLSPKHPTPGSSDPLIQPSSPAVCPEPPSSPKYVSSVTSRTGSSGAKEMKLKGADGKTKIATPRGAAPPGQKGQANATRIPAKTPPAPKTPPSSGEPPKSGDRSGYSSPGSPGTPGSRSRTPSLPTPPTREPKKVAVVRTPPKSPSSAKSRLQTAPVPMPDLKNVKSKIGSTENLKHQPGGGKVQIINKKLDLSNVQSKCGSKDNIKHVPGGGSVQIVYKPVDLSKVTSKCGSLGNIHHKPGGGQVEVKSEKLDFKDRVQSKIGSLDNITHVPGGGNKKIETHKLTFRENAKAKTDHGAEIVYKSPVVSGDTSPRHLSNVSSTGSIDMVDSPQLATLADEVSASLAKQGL
tau in brain cortex of Alzheimer's disease patients (P10636, form named): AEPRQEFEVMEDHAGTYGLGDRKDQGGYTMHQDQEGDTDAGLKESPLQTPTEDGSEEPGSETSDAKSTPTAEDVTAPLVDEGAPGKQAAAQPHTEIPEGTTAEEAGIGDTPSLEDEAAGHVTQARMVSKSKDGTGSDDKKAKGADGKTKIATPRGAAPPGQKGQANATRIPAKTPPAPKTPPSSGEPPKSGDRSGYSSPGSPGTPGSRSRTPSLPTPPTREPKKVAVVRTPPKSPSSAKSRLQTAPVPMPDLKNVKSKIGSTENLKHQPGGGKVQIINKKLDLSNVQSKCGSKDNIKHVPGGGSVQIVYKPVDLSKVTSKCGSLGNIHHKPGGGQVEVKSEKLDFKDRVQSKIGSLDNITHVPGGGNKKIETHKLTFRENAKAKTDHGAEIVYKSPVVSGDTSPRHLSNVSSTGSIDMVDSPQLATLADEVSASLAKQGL

Assays:
[1] = target: tau in brain cortex of Alzheimer's disease patients (human) (UniProt P10636); assay: immunohistochemistry, stain of AD tissue, 1 ug/mL
[2] = target: tau in brain cortex of Alzheimer's disease patients (human) (UniProt P10636); assay: immunohistochemistry on AD brain cortex sections
[3] = target: tau in brain cortex of Alzheimer's disease patients (human) (UniProt P10636); assay: double immunofluorescent labeling on AD brain cortex sections
[4] = target: tau in brain cortex of Alzheimer's disease patients (human) (UniProt P10636); assay: immunoprecipitation from AD frontal cortex fractions, blot with polyclonal tau antibody
[5] = target: purified tau (immunogen and ELISA antigen of Example 1) (human) (UniProt P10636); assay: capture ELISA
[6] = target: Δ37-46 deletion mutant of tau (rTau) (human) (UniProt P10636); assay: Western blot of bacterial lysates, 16B5 at 0.2 µg/mL
[7] = target: A41L; assay: Western blot of lysate (alanine scan), stained with 16B5
[8] = target: D34A; assay: as above
[9] = target: D38A; assay: as above
[10] = target: D40A; assay: as above
[11] = target: E36A; assay: as above
[12] = target: G42A; assay: as above
[13] = target: H32A; assay: as above
[14] = target: M31A; assay: as above
[15] = target: Q35A; assay: as above
[16] = target: T30A; assay: as above
[17] = target: T39A; assay: as above
[18] = target: tau in brain cortex of Alzheimer's disease patients (human) (UniProt P10636); assay: Immunoprecipitation from AD frontal cortex fractions (high-salt soluble; sarkosyl insoluble) with protein G beads, blot with polyclonal tau antibody

- binding [1]: binds
- binding [2]: binds
- binding [3]: binds
- binding [4]: binds
B1: humanized 16B5 antibody, version H1L2 (antibody, V domains shown)
VH: QVQLVQSGSELKKPGASVKVSCKASGYTFTYHGMDWVRQAPGQGLEWMGWINTYSGVPTYADDFKGRFVFSLDTSVSTAYLQISSLKAEDTAVYFCARRRDFTMDFWGQGTTVTVSS
VL: NIVLTQSPDSLAVSLGERATINCKSSQSLLNSRTRKNYLAWFQQKPGQSPKLLIYWASTRESGVPDRFSGSGSGTDFTLTISSLQAEDVAVYYCKQSYTLRTFGGGTKVEIKR

- binding [4]: binds
B2: humanized 16B5 antibody, version H1L3 (antibody, V domains shown)
VH: B1 VH
VL: B1 VL with N1D

- binding [5]: binds
- binding [1]: binds
- binding [2]: binds
- binding [6]: binds
- binding [7]: binds
- binding [8]: binds
- binding [9]: binds
- binding [10]: binds
- binding [11]: binds
- binding [12]: binds
- binding [13]: binds
- binding [14]: binds
- binding [15]: binds
- binding [16]: binds
- binding [17]: binds
- binding [18]: binds
B3: murine monoclonal anti-tau antibody 16B5 (antibody, V domains shown)
VH: QIQLVQSGPELKKPGETVKISCKASGYPFTYHGMDWVKQAPWGGLEWMGWINTYSGVPTYADDFKGRFAFSLETSVGTAYLQINNLKNEDTATYFCARRRDFTMDFWGQGTSVTVSS
VL: NIVLSQSPSSLAVSPGEKVTMSCKSSQSLLNSRTRKNYLAWFQQKPGQSPKLLIYWASTRESGVPDRFTGSGSGTDFTLTISSVQAEDLAVYYCKQSYTLRTFGGGTNLEIKR
notes: Mouse monoclonal antibody; the isotype control used alongside it is IgG1; also called 16B5 monoclonal antibody; pan antibody 16B5
